# Taken from: PubChem BioAssay AID1224830 (NIAID, 2016)
# Assay: 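Genes whose knock-down alters the TNF-alpha reporter response to LPS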 (primary screen)
# System: human THP-1 monocytic leukaemia cells, TNF dual-luciferase reporter clone, PMA-differentiated to macrophage-like cells
# Knock-down reagent: siRNA pool against human genes, 50 nM
# Duration: LPS for 4 h, given about 3 days after siRNA transfection
# Treatment: bacterial LPS (TLR4 ligand), 10 ng/ml
# Read-out: 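TNF firefly reporter luminescence divided by renilla, normalised to the plate median, then turned into a robust z-score for each replicate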
# Reading the numbers: TNF reporter robust z-score: higher = stronger TNF reporter response to LPS
# Call rule: 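a well is active when its z-score exceeds 2.8 or falls below -1.5; control wells carry no call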
# The whole screen tested about 18,000 reagents; this is a random part of them. About 2,900 of them (16%) count as active. 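Calls are made per well; low scores hint the gene aids the LPS response, high scores that it dampens it.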 Repeated entries: four replicate wells of each siRNA pool. No sequences are given here.
target gene,TNF reporter robust z-score,Call
RNF111 (GeneID 54778),0.56,inactive
RNF111 (GeneID 54778),1.03,inactive
RNF111 (GeneID 54778),-1.5,inactive
RNF111 (GeneID 54778),-0.11,inactive
SPCS3 (GeneID 60559),0.71,inactive
SPCS3 (GeneID 60559),0.61,inactive
SPCS3 (GeneID 60559),1.37,inactive
SPCS3 (GeneID 60559),2.78,inactive
MAP3K15 (GeneID 389840),0.17,inactive
MAP3K15 (GeneID 389840),0.1,inactive
MAP3K15 (GeneID 389840),0.31,inactive
MAP3K15 (GeneID 389840),1.18,inactive
ESR2 (GeneID 2100),0.11,inactive
ESR2 (GeneID 2100),0.52,inactive
ESR2 (GeneID 2100),0.71,inactive
ESR2 (GeneID 2100),1.07,inactive
FBXL22 (GeneID 283807),-0.2,inactive
FBXL22 (GeneID 283807),-0.28,inactive
FBXL22 (GeneID 283807),0.94,inactive
FBXL22 (GeneID 283807),2.04,inactive
TSHZ3 (GeneID 57616),2.36,inactive
TSHZ3 (GeneID 57616),1.06,inactive
TSHZ3 (GeneID 57616),-0.34,inactive
TSHZ3 (GeneID 57616),0.77,inactive
LAMTOR5 (GeneID 10542),-1.03,inactive
LAMTOR5 (GeneID 10542),3.39,active
LAMTOR5 (GeneID 10542),-1.46,inactive
LAMTOR5 (GeneID 10542),-1,inactive
WFS1 (GeneID 7466),0.34,inactive
WFS1 (GeneID 7466),0.06,inactive
WFS1 (GeneID 7466),0.69,inactive
WFS1 (GeneID 7466),1.82,inactive
LRRC17 (GeneID 10234),-0.18,inactive
LRRC17 (GeneID 10234),0.46,inactive
LRRC17 (GeneID 10234),-0.53,inactive
LRRC17 (GeneID 10234),-0.65,inactive
EDDM3B (GeneID 64184),0.03,inactive
EDDM3B (GeneID 64184),0.19,inactive
EDDM3B (GeneID 64184),-1.31,inactive
EDDM3B (GeneID 64184),-0.52,inactive
MLX (GeneID 6945),-0.39,inactive
MLX (GeneID 6945),-0.07,inactive
MLX (GeneID 6945),-0.19,inactive
MLX (GeneID 6945),0,inactive
SLC1A3 (GeneID 6507),-0.77,inactive
SLC1A3 (GeneID 6507),-0.93,inactive
SLC1A3 (GeneID 6507),-0.97,inactive
SLC1A3 (GeneID 6507),-0.7,inactive
DYNLRB2 (GeneID 83657),-1.01,inactive
DYNLRB2 (GeneID 83657),0.16,inactive
DYNLRB2 (GeneID 83657),-0.68,inactive
DYNLRB2 (GeneID 83657),0.89,inactive
GLUD2 (GeneID 2747),-0.02,inactive
GLUD2 (GeneID 2747),0.32,inactive
GLUD2 (GeneID 2747),-0.92,inactive
GLUD2 (GeneID 2747),-0.18,inactive
SLC17A4 (GeneID 10050),-1.1,inactive
SLC17A4 (GeneID 10050),-0.82,inactive
SLC17A4 (GeneID 10050),-0.65,inactive
SLC17A4 (GeneID 10050),-0.48,inactive
OR5AP2 (GeneID 338675),0.61,inactive
OR5AP2 (GeneID 338675),-0.31,inactive
OR5AP2 (GeneID 338675),0.7,inactive
OR5AP2 (GeneID 338675),-0.45,inactive
SYCP3 (GeneID 50511),-1.16,inactive
SYCP3 (GeneID 50511),-0.98,inactive
SYCP3 (GeneID 50511),-0.71,inactive
SYCP3 (GeneID 50511),-0.68,inactive
TM4SF4 (GeneID 7104),0.55,inactive
TM4SF4 (GeneID 7104),1.71,inactive
TM4SF4 (GeneID 7104),0.37,inactive
TM4SF4 (GeneID 7104),0.59,inactive
LECT2 (GeneID 3950),3.86,active
LECT2 (GeneID 3950),4.55,active
LECT2 (GeneID 3950),3.19,active
LECT2 (GeneID 3950),1.97,inactive
